Data: patent US20220204633A1 (UNIVERSIT T Z RICH, published 2022)
No constants are given. Whether binding was seen depends on the method and setting. A result given as binding can be weak or reduced; the word gives no strength.

Protein sequences, listed by entry. Tags and fused reporters are not part of them. Lines headed by an entry give the natural chain unless they say otherwise; changes in a name come on top.
UniProt P55899: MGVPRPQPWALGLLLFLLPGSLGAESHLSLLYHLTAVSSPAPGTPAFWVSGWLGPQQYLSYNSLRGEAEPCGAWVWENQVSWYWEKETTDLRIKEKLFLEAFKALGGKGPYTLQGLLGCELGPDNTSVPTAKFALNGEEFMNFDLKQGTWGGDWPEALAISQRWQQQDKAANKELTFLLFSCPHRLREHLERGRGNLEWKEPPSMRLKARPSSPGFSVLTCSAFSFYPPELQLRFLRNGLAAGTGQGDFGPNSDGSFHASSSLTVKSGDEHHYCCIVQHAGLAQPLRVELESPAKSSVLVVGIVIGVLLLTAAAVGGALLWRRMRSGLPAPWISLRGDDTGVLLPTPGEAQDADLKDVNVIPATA

Tests used:
[1] = target: Histidine-coupled FcRn (R&D Systems) (human) (UniProt P55899); assay: ELISA at pH 6.0: IL-12Fc variant coated on the plate, His-coupled human FcRn titrated 0.5 to 30 µg/ml, detected with biotinylated anti-His antibody and streptavidin-HRP; axis printed 'Binding to FcRn (OD620)'
[2] = target: human recombinant biotinylated FcRn (Immunitrack) (human) (UniProt P55899); assay: SPR (FIG. 5 A)
[3] = target: human recombinant biotinylated FcRn (Immunitrack) (human) (UniProt P55899); assay: SPR, human recombinant FcRn immobilized, analyte in the liquid phase, pH 6.0; Kd by equilibrium analysis, plotted normalized to IL-12Fc WT
[4] = target: Histidine-coupled FcRn (R&D Systems) (human) (UniProt P55899); assay: FcRn ELISA, IL-12Fc variants coated, His-FcRn titrated, pH 6.0

binding [1]: binds
binding [2]: binds
binding [3]: binds
binding [4]: binds
B1: human IL-12Fc NHQ (Fc fusion)
chain: IWELKKDVYVVELDWYPDAPGEMVVLTCDTPEEDGITWTLDQSSEVLGSGKTLTIQVKEFGDAGQYTCHKGGEVLSHSLLLLHKKEDGIWSTDILKDQKEPKNKTFLRCEAKNYSGRFTCWWLTTISTDLTFSVKSSRGSSDPQGVTCGAATLSAERVRGDNKEYEYSVECQEDSACPAAEESLPIEVMVDAVHKLKYENYTSSFFIRDIIKPDPPKNLQLKPLKNSRQVEVSWEYPDTWSTPHSYFSLTFCVQVQGKSKREKKDRVFTDKTSATVICRKNASISVRAQDRYYSSSWSEWASVPCSGGGGSGGGGSGGGGSRNLPVATPDPGMFPCLHHSQNLLRAVSNMLQKARQTLEFYPCTSEEIDHEDITKDKTSTVEACLPLELTKNESCLNSRETSFITNGSCLASRKTSFMMALCLSSIYEDLKMYQVEFKTMNAKLLMDPKRQIFLDQNMLAVIDELMQALNFNSETVPQKSSLEEPDFYKTKIKLCILLHAFRIRAVTIDRVMSYLNASKVDKRVESKYGPPCPPCPAPEFLGGPSVFLFPPKPKDTLMNSRTPEVTCVVVDVSQEDPEVQFNWYVDGVEVHNAKTKPREEQFNSTYRVVSVLTVLHQDWLNGKEYKCKVSNKGLPSSIEKTISKAKGQPREPQVYTLPPSPEEMTKNQVSLTCLVKGFYPSDIAVEWESNGQPENNYKTTPPVLDSDGSFFLYSRLTVDKSRWQEGNVFSCSVMHEALHNQYTQKSLSLSLGK
notes: also called NHQ variant
